In patent publication US20240254119A1 (THIRD HARMONIC BIO, INC., priority 2022, published 2024):
The match of structure and compound is tentative.

Sequences of proteins named here, by UniProt entry; tags and fusion partners are left off. Residues count along the entry.
UniProt P10721, 26-976 limits assumed: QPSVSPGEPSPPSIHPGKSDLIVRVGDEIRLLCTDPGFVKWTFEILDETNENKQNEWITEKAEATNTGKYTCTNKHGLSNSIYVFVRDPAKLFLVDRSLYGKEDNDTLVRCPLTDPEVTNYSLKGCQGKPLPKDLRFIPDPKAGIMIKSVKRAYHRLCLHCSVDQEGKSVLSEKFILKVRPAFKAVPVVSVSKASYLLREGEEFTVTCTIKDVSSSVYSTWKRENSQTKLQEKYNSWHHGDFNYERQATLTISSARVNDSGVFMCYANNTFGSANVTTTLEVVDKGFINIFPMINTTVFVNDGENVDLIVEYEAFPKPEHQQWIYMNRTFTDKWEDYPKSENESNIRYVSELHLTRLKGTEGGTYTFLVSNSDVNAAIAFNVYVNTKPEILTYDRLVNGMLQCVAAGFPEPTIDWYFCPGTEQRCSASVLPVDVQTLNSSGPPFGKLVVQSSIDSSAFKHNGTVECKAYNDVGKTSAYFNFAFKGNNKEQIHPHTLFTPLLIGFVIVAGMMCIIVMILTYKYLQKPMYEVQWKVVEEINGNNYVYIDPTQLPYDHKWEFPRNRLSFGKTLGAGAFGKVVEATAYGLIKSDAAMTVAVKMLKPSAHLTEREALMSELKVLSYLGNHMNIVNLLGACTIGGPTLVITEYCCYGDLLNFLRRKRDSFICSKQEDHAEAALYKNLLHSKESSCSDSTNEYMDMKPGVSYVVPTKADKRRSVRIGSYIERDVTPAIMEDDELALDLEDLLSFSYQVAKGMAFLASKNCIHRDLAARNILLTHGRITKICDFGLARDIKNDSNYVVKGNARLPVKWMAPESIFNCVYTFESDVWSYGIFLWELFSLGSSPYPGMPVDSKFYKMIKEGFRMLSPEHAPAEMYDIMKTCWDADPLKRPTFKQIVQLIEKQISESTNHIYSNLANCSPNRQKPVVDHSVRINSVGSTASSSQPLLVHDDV
UniProt P07333, 20-972 limits assumed: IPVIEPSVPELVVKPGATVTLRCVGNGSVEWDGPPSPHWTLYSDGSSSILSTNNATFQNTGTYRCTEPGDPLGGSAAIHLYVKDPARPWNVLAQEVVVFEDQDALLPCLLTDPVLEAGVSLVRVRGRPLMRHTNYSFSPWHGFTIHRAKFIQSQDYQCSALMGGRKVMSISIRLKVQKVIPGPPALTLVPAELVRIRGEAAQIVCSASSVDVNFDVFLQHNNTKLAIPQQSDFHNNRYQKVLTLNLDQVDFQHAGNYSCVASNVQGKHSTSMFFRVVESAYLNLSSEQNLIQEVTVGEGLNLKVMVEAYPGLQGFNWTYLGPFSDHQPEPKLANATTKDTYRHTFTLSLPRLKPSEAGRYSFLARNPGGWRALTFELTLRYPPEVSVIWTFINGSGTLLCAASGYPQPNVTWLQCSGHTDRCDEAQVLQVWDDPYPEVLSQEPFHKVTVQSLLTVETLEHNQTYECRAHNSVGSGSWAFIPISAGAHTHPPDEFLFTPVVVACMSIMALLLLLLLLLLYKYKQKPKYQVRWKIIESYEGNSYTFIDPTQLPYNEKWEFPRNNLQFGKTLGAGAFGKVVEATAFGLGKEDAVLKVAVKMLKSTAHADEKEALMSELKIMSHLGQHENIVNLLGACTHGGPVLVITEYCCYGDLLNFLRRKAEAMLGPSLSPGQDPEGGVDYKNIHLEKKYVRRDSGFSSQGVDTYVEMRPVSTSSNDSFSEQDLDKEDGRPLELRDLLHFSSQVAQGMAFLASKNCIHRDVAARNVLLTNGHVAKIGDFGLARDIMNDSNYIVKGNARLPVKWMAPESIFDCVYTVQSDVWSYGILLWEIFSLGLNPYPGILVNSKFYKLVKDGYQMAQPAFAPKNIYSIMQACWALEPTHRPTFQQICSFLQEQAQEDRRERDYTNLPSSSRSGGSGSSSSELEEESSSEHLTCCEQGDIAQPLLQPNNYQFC
UniProt P16234, 24-1089 limits assumed: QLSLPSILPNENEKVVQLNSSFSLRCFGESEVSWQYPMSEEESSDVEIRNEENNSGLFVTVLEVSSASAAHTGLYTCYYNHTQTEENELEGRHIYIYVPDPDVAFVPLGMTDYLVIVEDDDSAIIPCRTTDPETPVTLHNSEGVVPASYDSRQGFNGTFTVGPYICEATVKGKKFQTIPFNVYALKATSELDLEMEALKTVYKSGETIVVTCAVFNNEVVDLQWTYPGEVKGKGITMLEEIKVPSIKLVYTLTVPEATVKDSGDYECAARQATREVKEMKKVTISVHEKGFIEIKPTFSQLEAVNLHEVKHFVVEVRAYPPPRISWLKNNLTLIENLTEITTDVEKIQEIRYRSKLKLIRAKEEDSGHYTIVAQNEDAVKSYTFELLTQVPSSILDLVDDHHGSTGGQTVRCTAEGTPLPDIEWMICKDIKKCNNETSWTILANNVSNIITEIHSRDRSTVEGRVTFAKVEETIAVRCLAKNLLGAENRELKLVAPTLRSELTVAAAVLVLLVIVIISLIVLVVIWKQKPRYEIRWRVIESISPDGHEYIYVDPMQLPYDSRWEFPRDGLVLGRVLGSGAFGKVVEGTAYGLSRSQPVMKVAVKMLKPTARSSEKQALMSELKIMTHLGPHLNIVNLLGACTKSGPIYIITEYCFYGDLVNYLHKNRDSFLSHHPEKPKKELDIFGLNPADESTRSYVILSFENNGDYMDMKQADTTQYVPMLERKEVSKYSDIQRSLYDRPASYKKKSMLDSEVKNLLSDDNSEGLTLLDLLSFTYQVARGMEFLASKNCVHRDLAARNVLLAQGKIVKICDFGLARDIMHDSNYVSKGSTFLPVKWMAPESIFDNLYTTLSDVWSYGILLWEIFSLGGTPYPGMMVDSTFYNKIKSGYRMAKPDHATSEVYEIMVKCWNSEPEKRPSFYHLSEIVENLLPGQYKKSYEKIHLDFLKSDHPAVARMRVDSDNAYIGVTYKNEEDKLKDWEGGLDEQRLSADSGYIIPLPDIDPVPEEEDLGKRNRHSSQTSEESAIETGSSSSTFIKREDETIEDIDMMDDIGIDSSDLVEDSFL

What was measured:
wtKIT = wtKIT (Homo sapiens, UniProt P10721); assay: Caliper biochemical assay, wtKIT; conditions: read-out: KIT Biochemical IC50 avg, Table 6
CSF-1R = CSF-1R (Homo sapiens, UniProt P07333); assay: Caliper biochemical assay, CSF-1R; conditions: read-out: CSF-1R Biochemical IC50, Table 6
PDGFRα = PDGFRα (Homo sapiens, UniProt P16234); assay: Caliper biochemical assay, PDGFRα; conditions: read-out: PDGFRα Biochemical Avg IC50, Table 6
Kinetic solubility assay = conditions: 50 mM PB (pH 7.4), shaken 24 hours at RT

- IC50 (wtKIT): 50 to 500 nM
- IC50 (CSF-1R): 500 to 5000 nM
- IC50 (PDGFRα): 5000 to 30000 nM
SMILES: COC(=O)N1CC(c2nc(-c3ccc(OC)c(NC(=O)c4cnc5ccccn45)c3)no2)C1
- Solubility (μM) (Kinetic solubility assay): *** (a solubility greater than 2 μM and less than or equal to 10 μM)
